Reference: PMC4789793, “Noggin4 is a long-range inhibitor of Wnt8 signalling that regulates head development in Xenopus laevis” (Scientific Reports, 2016)
Results are given in words; binding and its absence hold for the method and conditions named. Binding seen in cells or lysates may run through a third protein. Some entries that bind do so weakly or less than the wild type. Where a sequence is shown, tags or fusion partners need not be part of it.

The chains behind the UniProt entries cited, without tags or fusion partners. Residues count along the entry.
UniProt O93274, residues 24-581: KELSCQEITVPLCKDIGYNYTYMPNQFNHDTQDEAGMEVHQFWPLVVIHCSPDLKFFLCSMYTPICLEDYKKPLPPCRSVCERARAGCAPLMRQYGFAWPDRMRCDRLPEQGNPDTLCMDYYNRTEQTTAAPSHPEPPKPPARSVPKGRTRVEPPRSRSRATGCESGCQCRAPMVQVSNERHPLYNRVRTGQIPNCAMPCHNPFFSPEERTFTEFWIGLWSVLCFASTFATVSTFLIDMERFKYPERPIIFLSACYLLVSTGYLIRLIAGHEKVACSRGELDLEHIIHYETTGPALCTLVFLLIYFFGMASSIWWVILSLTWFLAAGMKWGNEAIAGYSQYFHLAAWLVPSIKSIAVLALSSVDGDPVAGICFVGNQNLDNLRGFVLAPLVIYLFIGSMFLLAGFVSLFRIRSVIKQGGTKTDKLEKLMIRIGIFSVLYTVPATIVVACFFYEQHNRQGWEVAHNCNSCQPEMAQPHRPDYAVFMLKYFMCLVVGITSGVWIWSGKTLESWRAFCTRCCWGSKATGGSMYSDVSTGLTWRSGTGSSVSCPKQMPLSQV

T1: Flag-Wnt8 (Xenopus laevis) (UniProt P28026)
T1 sequence: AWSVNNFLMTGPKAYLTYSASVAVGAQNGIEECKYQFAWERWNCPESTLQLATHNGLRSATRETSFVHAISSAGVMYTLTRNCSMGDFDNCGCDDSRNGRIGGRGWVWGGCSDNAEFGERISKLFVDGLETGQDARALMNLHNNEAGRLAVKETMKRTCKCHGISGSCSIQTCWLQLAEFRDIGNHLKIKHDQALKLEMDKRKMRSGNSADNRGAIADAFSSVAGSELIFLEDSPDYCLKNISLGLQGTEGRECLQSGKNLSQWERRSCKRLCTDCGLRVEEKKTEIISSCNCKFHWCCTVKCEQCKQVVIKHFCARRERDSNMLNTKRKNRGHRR

T2: Myc-Noggin1 (Xenopus laevis) (UniProt P49011)
T2 sequence: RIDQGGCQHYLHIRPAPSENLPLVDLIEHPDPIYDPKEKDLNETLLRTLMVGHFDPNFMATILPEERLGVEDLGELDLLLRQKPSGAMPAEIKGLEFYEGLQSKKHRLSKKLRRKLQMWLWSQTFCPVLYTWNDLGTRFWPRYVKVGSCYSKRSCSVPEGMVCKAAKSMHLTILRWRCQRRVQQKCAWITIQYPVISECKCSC

B1: Flag-BMP4 (ligand, UniProt P30885 288-401)
chain: SPKQQRPRKKNKHCRRHSLYVDFSDVGWNDWIVAPPGYQAFYCHGDCPFPLADHLNSTNHAIVQTLVNSVNSSIPKACCVPTELSAISMLYLDEYDKVVLKNYQEMVVEGCGCR

Columns and labels:
[1] = biological target: T1, Flag-Wnt8 (Xenopus laevis); experiment: co-IP; crude extracts of mid-gastrula embryos injected at the 2-cell stage with Noggin4 and Wnt8 mRNA, alone or with increasing amounts of Frizzled8 mRNA
[2] = biological target: T2, Myc-Noggin1 (Xenopus laevis); experiment: co-IP; Myc-Noggin from conditioned medium of dissociated embryos bound on anti-MYC affinity gel and washed; concentrated conditioned medium with the Flag-tagged protein added, 4 °C overnight, CMFM + IP additives (0.1% NP40, glutathione); eluted with c-MYC peptide, Western blot; only the target purified

Row | Molecule | binding [1] | binding [2]
1 | Frizzled8 (from UniProt O93274 24-581) (receptor) | binds | 
2 | B1 |  | binds
